Test results from publication PMC11980836.

Chains of the proteins cited; added tags and fusions are not shown.
UniProt Q6P444: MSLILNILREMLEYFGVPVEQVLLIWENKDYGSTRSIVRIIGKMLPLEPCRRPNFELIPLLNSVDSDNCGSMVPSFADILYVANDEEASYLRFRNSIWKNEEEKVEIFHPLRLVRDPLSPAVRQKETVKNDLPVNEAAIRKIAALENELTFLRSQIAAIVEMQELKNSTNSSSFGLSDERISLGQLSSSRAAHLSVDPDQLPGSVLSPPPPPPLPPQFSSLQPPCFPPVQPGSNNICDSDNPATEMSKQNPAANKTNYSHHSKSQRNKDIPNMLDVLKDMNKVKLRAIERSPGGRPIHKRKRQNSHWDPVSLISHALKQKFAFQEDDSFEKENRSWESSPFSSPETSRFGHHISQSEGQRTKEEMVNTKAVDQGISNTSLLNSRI

B1: metaxin 1 (MTX1) (protein, UniProt Q13505 1-466)
chain: MLLGGPPRSPRSGTSPKGPWSSTGHVQFGKSPQTWPRRTRPRSPEPAAPSGVRGSTWTRRRDSPRRAGPTALSRYVGHLWMGRRPPSPEARGPVPRSSAASRARRSLASPGISPGPLTATIGGAVAGGGPRQGRAEAHKEVFPGQRVGKMAAPMELFCWSGGWGLPSVDLDSLAVLTYARFTGAPLKVHKISNPWQSPSGTLPALRTSHGEVISVPHKIITHLRKEKYNADYDLSARQGADTLAFMSLLEEKLLPVLVHTFWIDTKNYVEVTRKWYAEAMPFPLNFFLPGRMQRQYMERLQLLTGEHRPEDEEELEKELYREARECLTLLSQRLGSQKFFFGDAPASLDAFVFSYLALLLQAKLPSGKLQVHLRGLHNLCAYCTHILSLYFPWDGAEVPPQRQTPAGPETEEEPYRRRNQILSVLAGLAAMVGYALLSGIVSIQRATPARAPGTRTLGMAEEDEEE

How the values were obtained:
[1] = target: T1, Flag-tagged ARMC1 (F-ARMC1), wild type (UniProt Q9NVT9); experiment: affinity purification with mass spectrometry; large-scale: F-ARMC1 captured on M2 anti-Flag resin from the 1% digitonin-solubilized membrane fraction of Flp-In 293 T-REx rescue cells, washed in RNC buffer with 0.25% digitonin, eluted with 3xFlag peptide; SDS-PAGE with Coomassie staining, mass spectrometry and immunoblotting of input, flow-through and elution
T1 sequence: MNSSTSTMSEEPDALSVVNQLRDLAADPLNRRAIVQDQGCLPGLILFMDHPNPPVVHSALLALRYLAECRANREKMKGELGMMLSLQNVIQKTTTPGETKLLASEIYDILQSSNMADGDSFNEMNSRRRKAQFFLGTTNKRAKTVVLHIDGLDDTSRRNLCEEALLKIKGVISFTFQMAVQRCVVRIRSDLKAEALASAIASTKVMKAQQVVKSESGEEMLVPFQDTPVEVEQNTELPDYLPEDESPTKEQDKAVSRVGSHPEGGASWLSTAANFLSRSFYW

[2] = target: T1, Flag-tagged ARMC1 (F-ARMC1), wild type; experiment: as above; remark: listed apart in the source

Molecule	binding [1]	binding [2]
MTFR2, endogenous (from UniProt Q6P444 1-385)	binds	
B1		binds

Where two headings read alike, the source gives them in different places. No constants are given. Whether binding was seen depends on the method and setting. In cells and extracts the contact can be indirect. A yes stands for co-enrichment or nearness to the bait. Other partners may have been found. Tags and fused reporters may be left off the sequences shown.
